From US20100173832A1, “ANTICANCEROUS POLYMERIC AGENTS” (TECHNION RESEARCH & DEVELOPMENT FOUNDATION LTD., priority 2007, published 2010)
Not every detail of the peptide structures is certain; ends, links or a residue may be inferred. For part of these data: At least one compound was matched to its structure with a doubt left. Non-standard residues stand in square brackets, D forms with d. Residues, ends and D or L forms follow the SMILES beside them. *: point of attachment. Lauroyl = CCCCCCCCCCCC(=O)*; 12Ado = NCCCCCCCCCCCC(=O)O; Aoc = NCCCCCCCC(=O)O

Key:
C6 glioma cell line = assay: Lethal concentration against C6 glioma cell line; format: cell-based, rat
human CEM T-cell line = assay: Lethal concentration against MDR CEM T-cell line; format: cell-based; conditions: MDR induced

Row | SMILES | C6 lethal concentration (C6 glioma cell line) [µM] | CEM lethal concentration (human CEM T-cell line) [µM]
1 | NCCCCCCCCCCCC(=O)N[C@@H](CCCCN)C(=O)NCCCCCCCCCCCC(=O)N[C@@H](CCCCN)C(N)=O [(NC12K)2NH2] | >16 | 
2 | NCCCCCCCCCCCC(=O)N[C@@H](CCCCN)C(=O)NCCCCCCCCCCCC(=O)N[C@@H](CCCCN)C(=O)NCCCCCCCCCCCC(=O)N[C@@H](CCCCN)C(N)=O [(NC12K)3NH2] | >16 | >16
3 | NCCCCCCCCCCCC(=O)N[C@@H](CCCCN)C(=O)NCCCCCCCCCCCC(=O)N[C@@H](CCCCN)C(=O)NCCCCCCCCCCCC(=O)N[C@@H](CCCCN)C(=O)NCCCCCCCCCCCC(=O)N[C@@H](CCCCN)C(=O)NCCCCCCCCCCCC(=O)N[C@@H](CCCCN)C(N)=O [(NC12K)5NH2] | >16 | 
4 | NCCCCCCCCCCCC(=O)N[C@@H](CCCCN)C(=O)NCCCCCCCCCCCC(=O)N[C@@H](CCCCN)C(=O)NCCCCCCCCCCCC(=O)N[C@@H](CCCCN)C(=O)NCCCCCCCCCCCC(=O)N[C@@H](CCCCN)C(=O)NCCCCCCCCCCCC(=O)N[C@@H](CCCCN)C(=O)NCCCCCCCCCCCC(=O)N[C@@H](CCCCN)C(N)=O [(NC12K)6NH2] | >16 | 
5 | NCCCCCCCCCCCC(=O)N[C@@H](CCCCN)C(=O)NCCCCCCCCCCCC(=O)N[C@@H](CCCCN)C(=O)NCCCCCCCCCCCC(=O)N[C@@H](CCCCN)C(=O)NCCCCCCCCCCCC(=O)N[C@@H](CCCCN)C(=O)NCCCCCCCCCCCC(=O)N[C@@H](CCCCN)C(=O)NCCCCCCCCCCCC(=O)N[C@@H](CCCCN)C(=O)NCCCCCCCCCCCC(=O)N[C@@H](CCCCN)C(N)=O [(NC12K)7NH2] | >16 | 
6 | NCCCCCCCCCCCC(=O)N[C@@H](CCCCN)C(=O)NCCCCCCCCCCCC(=O)N[C@@H](CCCCN)C(=O)NCCCCCCCCCCCC(=O)N[C@@H](CCCCN)C(=O)NCCCCCCCCCCCC(=O)N[C@@H](CCCCN)C(=O)NCCCCCCCCCCCC(=O)N[C@@H](CCCCN)C(=O)NCCCCCCCCCCCC(=O)N[C@@H](CCCCN)C(=O)NCCCCCCCCCCCC(=O)N[C@@H](CCCCN)C(=O)NCCCCCCCCCCCC(=O)N[C@@H](CCCCN)C(N)=O [(NC12K)8NH2] | >16 | 
7 | CCCCCCCCCCCC(=O)N[C@@H](CCCCN)C(=O)NCCCCCCCC(=O)N[C@@H](CCCCN)C(=O)N[C@@H](CCCCN)C(=O)NCCCCCCCC(=O)N[C@@H](CCCCN)C(N)=O [C12(KNC8K)2NH2] (Lauroyl-K[Aoc]KK[Aoc]K-NH2) | >16 | 
8 | CCCCCCCCCCCC(=O)N[C@@H](CCCCN)C(=O)NCCCCCCCC(=O)N[C@@H](CCCCN)C(=O)N[C@@H](CCCCN)C(=O)NCCCCCCCC(=O)N[C@@H](CCCCN)C(=O)N[C@@H](CCCCN)C(=O)NCCCCCCCC(=O)N[C@@H](CCCCN)C(N)=O [C12(KNC8K)3NH2] (Lauroyl-K[Aoc]KK[Aoc]KK[Aoc]K-NH2) | >16 | 
9 | CCCCCCCCCCCC(=O)N[C@@H](CCCCN)C(=O)NCCCCCCCC(=O)N[C@@H](CCCCN)C(=O)N[C@@H](CCCCN)C(=O)NCCCCCCCC(=O)N[C@@H](CCCCN)C(=O)N[C@@H](CCCCN)C(=O)NCCCCCCCC(=O)N[C@@H](CCCCN)C(=O)N[C@@H](CCCCN)C(=O)NCCCCCCCC(=O)N[C@@H](CCCCN)C(N)=O [C12(KNC8K)4NH2] (Lauroyl-K[Aoc]KK[Aoc]KK[Aoc]KK[Aoc]K-NH2) | >16 | 
10 | CCCCCCCCCCCC(=O)N[C@@H](CCCCN)C(=O)NCCCCCCCC(=O)N[C@@H](CCCCN)C(N)=O [C12(KNC8K)NH2] | >16 | 
11 | CCCCCCCCCCCC(=O)N[C@@H](CCCCN)C(=O)NCCCCCCCCCCCC(=O)N[C@@H](CCCCN)C(=O)NCCCCCCCCCCCC(=O)N[C@@H](CCCCN)C(N)=O [C12K(NC12K)2NH2] | >16 | 
12 | CCCCCCCCCCCC(=O)N[C@@H](CCCCN)C(=O)NCCCCCCCCCCCC(=O)N[C@@H](CCCCN)C(=O)NCCCCCCCCCCCC(=O)N[C@@H](CCCCN)C(=O)NCCCCCCCCCCCC(=O)N[C@@H](CCCCN)C(N)=O [C12K(NC12K)3NH2] | >16 | 
13 | CCCCCCCCCCCC(=O)N[C@@H](CCCCN)C(=O)NCCCCCCCCCCCC(=O)N[C@@H](CCCCN)C(=O)NCCCCCCCCCCCC(=O)N[C@@H](CCCCN)C(=O)NCCCCCCCCCCCC(=O)N[C@@H](CCCCN)C(=O)NCCCCCCCCCCCC(=O)N[C@@H](CCCCN)C(N)=O [C12K(NC12K)4NH2] | >16 | >16
14 | CCCCCCCCCCCC(=O)N[C@@H](CCCCN)C(=O)NCCCCCCCCCCCC(=O)N[C@@H](CCCCN)C(N)=O [C12KNC12KNH2] | >16 | 
15 | NCCCC[C@@H]1NC(=O)CCCCCCCCCCCNC(=O)[C@H](CCCCN)NC(=O)[C@H](CCCCN)NC(=O)CCCCCCCCCCCNC(=O)[C@H](CCCCN)NC1=O [Cyclic-(KNC12K)2] (HELM PEPTIDE1{[O=C(CCCCCCCCCCCN[*:1])[*:2]].K.K.[O=C(CCCCCCCCCCCN[*:1])[*:2]].K.K}$PEPTIDE1,PEPTIDE1,1:R1-6:R2$$$V2.0) | >16 | 
16 | NCCCC[C@@H]1NC(=O)CCCCCCCCCCCNC(=O)[C@H](CCCCN)NC(=O)[C@H](CCCCN)NC(=O)CCCCCCCCCCCNC(=O)[C@H](CCCCN)NC(=O)[C@H](CCCCN)NC(=O)CCCCCCCCCCCNC(=O)[C@H](CCCCN)NC1=O [Cyclic-(KNC12K)3] (cyclo(K[12Ado]KK[12Ado]KK[12Ado]K)) | >16 | 
17 | NCCCC[C@@H]1NC(=O)CCCCCCCCCCCNC(=O)[C@H](CCCCN)NC(=O)CCCCCCCCCCCNC(=O)[C@H](CCCCN)NC(=O)CCCCCCCCCCCNC(=O)[C@H](CCCCN)NC(=O)[C@H](CCCCN)NC(=O)CCCCCCCCCCCNC(=O)[C@H](CCCCN)NC(=O)CCCCCCCCCCCNC1=O [Cyclic-K(NC12K)5] (cyclo(K[12Ado]K[12Ado]K[12Ado]K[12Ado]K[12Ado]K)) | >16 | >16
18 | NCCCC[C@@H]1NC(=O)CCCCCCCCCCCNC(=O)[C@H](CCCCN)NC(=O)[C@H](CCCCN)NC(=O)CCCCCCCCCCCNC(=O)[C@H](CCCCN)NC(=O)[C@H](CCCCN)NC(=O)CCCCCCCCCCCNC1=O [Cyclic-NC12K(KNC12K)2] (cyclo([12Ado]KK[12Ado]KK[12Ado]K)) | >16 | 
19 | NCCCC[C@@H]1NC(=O)CCCCCCCCCCCNC(=O)[C@H](CCCCN)NC(=O)[C@H](CCCCN)NC(=O)CCCCCCCCCCCNC1=O [Cyclic-NC12KKNC12K] (HELM PEPTIDE1{[O=C(CCCCCCCCCCCN[*:1])[*:2]].K.[O=C(CCCCCCCCCCCN[*:1])[*:2]].K.K}$PEPTIDE1,PEPTIDE1,1:R1-5:R2$$$V2.0) | >16 | 
20 | NCCCC[C@H](NC(=O)CCCCCCCCCCCNC(=O)[C@H](CCCCN)NC(=O)CCCCCCCCCCCNC(=O)[C@@H](N)CCCCN)C(N)=O [K(NC12K)2NH2] | >16 | 
21 | NCCCC[C@H](NC(=O)CCCCCCCCCCCNC(=O)[C@H](CCCCN)NC(=O)CCCCCCCCCCCNC(=O)[C@H](CCCCN)NC(=O)CCCCCCCCCCCNC(=O)[C@@H](N)CCCCN)C(N)=O [K(NC12K)3NH2] | >16 | 
22 | NCCCC[C@H](NC(=O)CCCCCCCCCCCNC(=O)[C@H](CCCCN)NC(=O)CCCCCCCCCCCNC(=O)[C@H](CCCCN)NC(=O)CCCCCCCCCCCNC(=O)[C@H](CCCCN)NC(=O)CCCCCCCCCCCNC(=O)[C@@H](N)CCCCN)C(N)=O [K(NC12K)4NH2] | >16 | >16
23 | NCCCC[C@H](NC(=O)CCCCCCCCCCCNC(=O)[C@H](CCCCN)NC(=O)CCCCCCCCCCCNC(=O)[C@H](CCCCN)NC(=O)CCCCCCCCCCCNC(=O)[C@H](CCCCN)NC(=O)CCCCCCCCCCCNC(=O)[C@H](CCCCN)NC(=O)CCCCCCCCCCCNC(=O)[C@@H](N)CCCCN)C(N)=O [K(NC12K)5NH2] | >16 | 
24 | NCCCC[C@H](NC(=O)CCCCCCCCCCCNC(=O)[C@H](CCCCN)NC(=O)CCCCCCCCCCCNC(=O)[C@H](CCCCN)NC(=O)CCCCCCCCCCCNC(=O)[C@H](CCCCN)NC(=O)CCCCCCCCCCCNC(=O)[C@H](CCCCN)NC(=O)CCCCCCCCCCCNC(=O)[C@H](CCCCN)NC(=O)CCCCCCCCCCCNC(=O)[C@@H](N)CCCCN)C(N)=O [K(NC12K)6NH2] | >16 | 
25 | NCCCC[C@H](NC(=O)CCCCCCCCCCCNC(=O)[C@H](CCCCN)NC(=O)CCCCCCCCCCCNC(=O)[C@H](CCCCN)NC(=O)CCCCCCCCCCCNC(=O)[C@H](CCCCN)NC(=O)CCCCCCCCCCCNC(=O)[C@H](CCCCN)NC(=O)CCCCCCCCCCCNC(=O)[C@H](CCCCN)NC(=O)CCCCCCCCCCCNC(=O)[C@H](CCCCN)NC(=O)CCCCCCCCCCCNC(=O)[C@@H](N)CCCCN)C(N)=O [K(NC12K)7NH2] | >16 | 
26 | NCCCC[C@H](NC(=O)CCCCCCCCCCCNC(=O)[C@@H](N)CCCCN)C(N)=O [KNC12KNH2] | >16 | 
